In patent US20110045568A1, “METHOD FOR RESTORING BMP-RECEPTOR SIGNALING IN A CELL” (FREIE UNIVERSITÄT BERLIN, priority 2008, published 2011):
No constants are given. Whether binding was seen depends on the method and setting. Binding seen in cells or lysates may run through a third protein. Some results given as binding are weak or reduced against the parent protein; the word gives no strength.

Protein sequences, listed by entry. Tags and fused reporters are not part of them.
UniProt P97471: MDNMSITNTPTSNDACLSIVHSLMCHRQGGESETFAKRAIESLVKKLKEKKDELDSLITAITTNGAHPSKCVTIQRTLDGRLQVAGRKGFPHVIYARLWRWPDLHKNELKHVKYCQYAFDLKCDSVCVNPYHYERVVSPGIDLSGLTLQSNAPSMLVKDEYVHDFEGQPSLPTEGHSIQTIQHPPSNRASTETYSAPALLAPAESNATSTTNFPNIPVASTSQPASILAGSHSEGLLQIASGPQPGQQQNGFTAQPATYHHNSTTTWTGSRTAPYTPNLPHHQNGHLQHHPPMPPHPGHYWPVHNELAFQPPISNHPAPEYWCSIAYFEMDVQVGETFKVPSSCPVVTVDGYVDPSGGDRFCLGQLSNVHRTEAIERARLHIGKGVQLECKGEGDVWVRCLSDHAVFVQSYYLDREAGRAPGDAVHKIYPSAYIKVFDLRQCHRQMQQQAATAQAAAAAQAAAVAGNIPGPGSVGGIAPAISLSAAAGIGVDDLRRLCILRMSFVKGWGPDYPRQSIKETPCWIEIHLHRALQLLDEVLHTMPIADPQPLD

Target: endogenous Smad4 of C2C12 cells (mouse) (UniProt P97471)
Assay: co-IP from C2C12 whole lysates

binding: binds
B1: endogenous cGKIβ of C2C12 cells (enzyme, mouse, UniProt P0C605-2 1-686, looked up)
chain: MGTLRDLQYALQEKIEELRQRDALIDELELELDQKDELIQKLQNELDKYRSVIRPATQQAQKQSASTLQGEPRTKRQAISAEPTAFDIQDLSHVTLPFYPKSPQSKDLIKEAILDNDFMKNLELSQIQEIVDCMYPVEYGKDSCIIKEGDVGSLVYVMEDGKVEVTKEGVKLCTMGPGKVFGELAILYNCTRTATVKTLVNVKLWAIDRQCFQTIMMRTGLIKHTEYMEFLKSVPTFQSLPDEILSKLADVLEETHYENGEYIIRQGARGDTFFIISKGQVNVTREDSPSEDPVFLRTLGKGDWFGEKALQGEDVRTANVIAAEAVTCLVIDRDSFKHLIGGLDDVSNKAYEDAEAKAKYEAEAAFFANLKLSDFNIIDTLGVGGFGRVELVQLKSEESKTFAMKILKKRHIVDTRQQEHIRSEKQIMQGAHSDFIVRLYRTFKDSKYLYMLMEACLGGELWTILRDRGSFEDSTTRFYTACVVEAFAYLHSKGIIYRDLKPENLILDHRGYAKLVDFGFAKKIGFGKKTWTFCGTPEYVAPEIILNKGHDISADYWSLGILMYELLTGSPPFSGPDPMKTYNIILRGIDMIEFPKKIAKNAANLIKKLCRDNPSERLGNLKNGVKDIQKHKWFEGFNWEGLRKGTLTPPIIPSVASPTDTSNFDSFPEDSDEPPPDDNSGWDIDF
